Test results: publication PMC12818745 (ACS Chemical Neuroscience, 2025)

Experiment: in vitro
Details: PAMPA, pH 7.4
Procedure: To assess BBB permeability, a parallel artificial membrane permeability assay (PAMPA)-BBB was performed, which predicts passive BBB permeability using a brain lipid porcine membrane.
The prediction of the brain penetration was evaluated using a PAMPA-BBB. […] Next, 100 μL of these stock solutions were added to a solution of 1400 μL of EtOH and 3500 μL of PBS at pH 7.4, to reach 30% of EtOH concentration in the experiment. These solutions were filtered, using Filter PDVF membrane units (diameter 30 mm, pore size 0.45 μm, from Symta). After this, the acceptor 96-well microplate (Multiscreen, catalogue no. MAMCS9610, from Millipore) was filled with 180 μL of PBS/EtOH (70/30). […] After 5 min, 180 μL of each compound solution was added. 1–2 mg of each selected compound was dissolved in 1500 μL of EtOH and 3500 μL of PBS at pH 7.4, filtered, and then added to the donor 96-well plate to determine their ability to cross the brain barrier. After this, the donor plate was carefully put on the acceptor plate to form a “sandwich” and incubated for 2.5 h at 25 °C. […] A 96-well plate UV reader (Thermoscientific, Multiskan spectrum) was used to determine the concentration of compounds and commercial drugs in the acceptor and donor wells. Every sample was analyzed at three to five wavelengths, in three wells, and in two independent runs. […]

`CC(C)NCC(O)COc1ccc(CC(N)=O)cc1` (stereo not shown) [Atenolol, reference compound] gave a Papp at 2.5 h of 0.42 ± 0.19 ×10⁻⁶ cm/s.
